{
  "source": "patent US6562363B1",
  "about": "“Bioadhesive compositions and methods for topical administration of active agents” (Noven Pharmaceuticals, Inc., priority 1997, dated 2003)",
  "origin": "cited, not measured here",
  "conditions": "application to skin or mucous membranes",
  "data": [
    {"smiles": "CCN(CC)CC(=O)Nc1c(C)cccc1C", "note": "[Lidocaine]", "values": [
      {"measurement": "Duration of Effect", "setting": "duration of anesthetic effect", "result": "30 to 60", "unit": "min"},
      {"measurement": "Peak Effect", "setting": "time to peak anesthetic effect", "result": "2 to 5", "unit": "min"}
    ]}
  ]
}
